In the assay the target is T1, GFP-STX17, P56962.
T1 chain: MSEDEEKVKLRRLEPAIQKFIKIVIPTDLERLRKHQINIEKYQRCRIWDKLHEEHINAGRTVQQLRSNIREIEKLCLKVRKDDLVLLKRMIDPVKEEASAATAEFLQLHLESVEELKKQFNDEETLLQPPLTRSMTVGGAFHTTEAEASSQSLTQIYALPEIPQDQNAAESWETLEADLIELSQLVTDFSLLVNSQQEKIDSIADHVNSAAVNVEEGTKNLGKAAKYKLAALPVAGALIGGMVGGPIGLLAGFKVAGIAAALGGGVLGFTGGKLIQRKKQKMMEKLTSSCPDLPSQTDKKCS
Kind of assay: affinity purification with mass spectrometry; mass spectrometry of GFP-STX17 IPed proteins. Particulars: remark: other sources report otherwise.

No constants are given. Whether binding was seen depends on the method and setting. Binding seen in cells or lysates may run through a third protein. These calls come from enrichment with a bait or labelling near it, and not all partners need be listed. Where a sequence is shown, tags or fusion partners need not be part of it.

B1: ULK1 (endogenous), O75385 1-1050 (enzyme)
chain: MEPGRGGTETVGKFEFSRKDLIGHGAFAVVFKGRHREKHDLEVAVKCINKKNLAKSQTLLGKEIKILKELKHENIVALYDFQEMANSVYLVMEYCNGGDLADYLHAMRTLSEDTIRLFLQQIAGAMRLLHSKGIIHRDLKPQNILLSNPAGRRANPNSIRVKIADFGFARYLQSNMMAATLCGSPMYMAPEVIMSQHYDGKADLWSIGTIVYQCLTGKAPFQASSPQDLRLFYEKNKTLVPTIPRETSAPLRQLLLALLQRNHKDRMDFDEFFHHPFLDASPSVRKSPPVPVPSYPSSGSGSSSSSSSTSHLASPPSLGEMQQLQKTLASPADTAGFLHSSRDSGGSKDSSCDTDDFVMVPAQFPGDLVAEAPSAKPPPDSLMCSGSSLVASAGLESHGRTPSPSPPCSSSPSPSGRAGPFSSSRCGASVPIPVPTQVQNYQRIERNLQSPTQFQTPRSSAIRRSGSTSPLGFARASPSPPAHAEHGGVLARKMSLGGGRPYTPSPQVGTIPERPGWSGTPSPQGAEMRGGRSPRPGSSAPEHSPRTSGLGCRLHSAPNLSDLHVVRPKLPKPPTDPLGAVFSPPQASPPQPSHGLQSCRNLRGSPKLPDFLQRNPLPPILGSPTKAVPSFDFPKTPSSQNLLALLARQGVVMTPPRNRTLPDLSEVGPFHGQPLGPGLRPGEDPKGPFGRSFSTSRLTDLLLKAAFGTQAPDPGSTESLQEKPMEIAPSAGFGGSLHPGARAGGTSSPSPVVFTVGSPPSGSTPPQGPRTRMFSAGPTGSASSSARHLVPGPCSEAPAPELPAPGHGCSFADPITANLEGAVTFEAPDLPEETLMEQEHTEILRGLRFTLLFVQHVLEIAALKGSASEAAGGPEYQLQESVVADQISLLSREWGFAEQLVLYLKVAELLSSGLQSAIDQIRAGKLCLSSTVKQVVRRLNELYKASVVSCQGLSLRLQRFFLDKQRLLDRIHSITAERLIFSHAVQMVQSAALDEMFQHREGCVPRYHKALLLLEGLQHMLSDQADIENVTKCKLCIERRLSALLTGICA
With B1, the binding result is “binds”.

The values above are taken from PMC6113293, “Phosphorylation of ULK1 affects autophagosome fusion and links chaperone-mediated autophagy to macroautophagy” (Nature Communications, 2018).
